Data as given in PMC5111407.

Amino acid sequences for entries named in this document (tags omitted). A change or cut given only in a name is not applied to a line headed by its entry.
UniProt A0A1D8PIP3: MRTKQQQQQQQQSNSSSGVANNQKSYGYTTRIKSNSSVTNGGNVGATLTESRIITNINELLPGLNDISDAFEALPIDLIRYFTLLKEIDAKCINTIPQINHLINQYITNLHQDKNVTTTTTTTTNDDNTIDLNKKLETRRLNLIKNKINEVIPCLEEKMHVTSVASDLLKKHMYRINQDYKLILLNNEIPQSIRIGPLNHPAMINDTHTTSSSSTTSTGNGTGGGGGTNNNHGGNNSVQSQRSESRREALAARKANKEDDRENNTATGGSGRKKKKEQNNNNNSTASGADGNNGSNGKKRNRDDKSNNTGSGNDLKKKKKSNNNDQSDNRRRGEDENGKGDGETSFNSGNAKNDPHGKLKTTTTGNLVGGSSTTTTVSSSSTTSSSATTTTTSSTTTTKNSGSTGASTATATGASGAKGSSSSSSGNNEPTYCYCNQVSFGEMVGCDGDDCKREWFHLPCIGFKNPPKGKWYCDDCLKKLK
UniProt A0A1D8PCC3: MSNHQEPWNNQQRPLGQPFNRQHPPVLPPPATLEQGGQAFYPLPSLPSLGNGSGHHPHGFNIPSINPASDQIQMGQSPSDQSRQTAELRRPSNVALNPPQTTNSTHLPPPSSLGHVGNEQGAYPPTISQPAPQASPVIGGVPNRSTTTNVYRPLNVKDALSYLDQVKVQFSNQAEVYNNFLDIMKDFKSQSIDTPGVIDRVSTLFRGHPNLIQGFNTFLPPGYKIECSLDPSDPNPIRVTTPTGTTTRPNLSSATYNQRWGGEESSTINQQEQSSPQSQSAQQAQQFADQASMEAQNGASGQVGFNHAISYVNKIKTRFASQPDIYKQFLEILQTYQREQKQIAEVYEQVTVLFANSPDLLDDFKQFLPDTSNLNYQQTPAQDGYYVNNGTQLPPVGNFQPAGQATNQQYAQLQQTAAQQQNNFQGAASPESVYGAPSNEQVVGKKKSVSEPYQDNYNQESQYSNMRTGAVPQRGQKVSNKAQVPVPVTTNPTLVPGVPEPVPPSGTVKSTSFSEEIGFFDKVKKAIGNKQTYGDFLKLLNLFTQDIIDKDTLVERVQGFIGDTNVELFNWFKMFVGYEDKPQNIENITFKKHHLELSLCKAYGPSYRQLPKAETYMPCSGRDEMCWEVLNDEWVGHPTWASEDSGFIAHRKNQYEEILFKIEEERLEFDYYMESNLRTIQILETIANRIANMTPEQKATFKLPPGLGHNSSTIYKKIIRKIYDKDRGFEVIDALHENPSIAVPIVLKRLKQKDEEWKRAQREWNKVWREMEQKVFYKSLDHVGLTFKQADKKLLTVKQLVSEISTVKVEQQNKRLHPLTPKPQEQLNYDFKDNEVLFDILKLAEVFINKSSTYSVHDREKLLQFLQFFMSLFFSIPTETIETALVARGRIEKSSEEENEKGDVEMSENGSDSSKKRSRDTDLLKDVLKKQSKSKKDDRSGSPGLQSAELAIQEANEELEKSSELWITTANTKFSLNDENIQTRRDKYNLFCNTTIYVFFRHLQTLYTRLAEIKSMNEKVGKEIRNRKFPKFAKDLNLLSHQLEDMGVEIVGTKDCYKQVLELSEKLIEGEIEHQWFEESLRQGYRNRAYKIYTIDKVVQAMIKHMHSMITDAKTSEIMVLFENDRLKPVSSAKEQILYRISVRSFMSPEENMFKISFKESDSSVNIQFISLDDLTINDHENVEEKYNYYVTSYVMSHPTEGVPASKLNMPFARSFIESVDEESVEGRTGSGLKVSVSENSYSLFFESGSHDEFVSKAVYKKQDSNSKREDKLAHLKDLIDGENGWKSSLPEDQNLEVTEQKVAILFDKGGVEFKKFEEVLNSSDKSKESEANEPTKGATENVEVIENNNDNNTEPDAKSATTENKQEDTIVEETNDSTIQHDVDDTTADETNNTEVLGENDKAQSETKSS
UniProt A0A1D8PRH3: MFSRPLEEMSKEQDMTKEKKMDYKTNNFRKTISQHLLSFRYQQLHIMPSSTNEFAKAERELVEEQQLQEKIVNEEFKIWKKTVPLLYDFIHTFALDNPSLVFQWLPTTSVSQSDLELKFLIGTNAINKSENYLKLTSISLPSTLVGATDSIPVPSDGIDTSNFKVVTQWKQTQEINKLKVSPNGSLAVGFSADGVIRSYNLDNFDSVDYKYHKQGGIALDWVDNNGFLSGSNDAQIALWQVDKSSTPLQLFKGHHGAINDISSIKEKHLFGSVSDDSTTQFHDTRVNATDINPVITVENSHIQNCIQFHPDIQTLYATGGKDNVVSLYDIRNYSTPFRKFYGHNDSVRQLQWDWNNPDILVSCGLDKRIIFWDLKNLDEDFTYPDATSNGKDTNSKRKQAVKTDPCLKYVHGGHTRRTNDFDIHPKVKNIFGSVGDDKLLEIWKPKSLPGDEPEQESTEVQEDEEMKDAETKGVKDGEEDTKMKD

biological target: T1, Rpd31-9myc (Candida albicans) (UniProt Q5ADP0); experiment: affinity purification with mass spectrometry; whole-cell extracts of 9myc-tagged C. albicans strains precipitated with anti-myc antibody (4A6) on protein G Dynabeads; lysis buffer 10 mM Tris-Cl pH 8.0, 150 mM NaCl, 0.1% Na-deoxycholate; 10% SDS-PAGE, silver staining, bands cut out and identified by LC-MS against an untagged control
T1 sequence: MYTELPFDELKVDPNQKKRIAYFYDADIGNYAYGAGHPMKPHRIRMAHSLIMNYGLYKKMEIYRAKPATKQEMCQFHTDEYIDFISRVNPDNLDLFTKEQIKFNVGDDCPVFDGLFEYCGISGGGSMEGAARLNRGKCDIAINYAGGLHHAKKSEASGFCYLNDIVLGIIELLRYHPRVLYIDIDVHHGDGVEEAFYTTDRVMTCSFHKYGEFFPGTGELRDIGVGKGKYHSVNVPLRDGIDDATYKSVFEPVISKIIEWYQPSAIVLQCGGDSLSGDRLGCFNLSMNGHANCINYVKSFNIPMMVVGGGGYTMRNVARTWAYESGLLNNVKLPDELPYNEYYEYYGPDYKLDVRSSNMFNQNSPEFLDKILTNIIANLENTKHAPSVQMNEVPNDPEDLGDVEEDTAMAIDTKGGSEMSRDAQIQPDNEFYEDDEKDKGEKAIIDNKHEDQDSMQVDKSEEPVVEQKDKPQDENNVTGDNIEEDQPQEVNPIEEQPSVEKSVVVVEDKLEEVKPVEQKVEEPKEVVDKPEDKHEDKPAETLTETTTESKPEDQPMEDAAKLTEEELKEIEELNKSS

| Substance | binding |
| --- | --- |
| Dep1 (Candida albicans (endogenous)) | binds |
| Pho23 (from UniProt A0A1D8PIP3 1-481) | binds |
| Rxt2 (Candida albicans (endogenous)) | binds |
| Sin3 (from UniProt A0A1D8PCC3 1-1411) | binds |
| Ume1 (orf19.7185 product) (from UniProt A0A1D8PRH3) | binds |

No constants are given. Whether binding was seen depends on the method and setting. Binding seen in cells or lysates may run through a third protein. A yes stands for co-enrichment or nearness to the bait. Other partners may have been found. Where a sequence is shown, tags or fusion partners need not be part of it.
